From article PMC8452301 (CPT: Pharmacometrics & Systems Pharmacology, 2021)
Like-named read-outs stand apart in the source and are kept apart here.

The chains behind the UniProt entries cited, without tags or fusion partners.
UniProt P08183, whole entry: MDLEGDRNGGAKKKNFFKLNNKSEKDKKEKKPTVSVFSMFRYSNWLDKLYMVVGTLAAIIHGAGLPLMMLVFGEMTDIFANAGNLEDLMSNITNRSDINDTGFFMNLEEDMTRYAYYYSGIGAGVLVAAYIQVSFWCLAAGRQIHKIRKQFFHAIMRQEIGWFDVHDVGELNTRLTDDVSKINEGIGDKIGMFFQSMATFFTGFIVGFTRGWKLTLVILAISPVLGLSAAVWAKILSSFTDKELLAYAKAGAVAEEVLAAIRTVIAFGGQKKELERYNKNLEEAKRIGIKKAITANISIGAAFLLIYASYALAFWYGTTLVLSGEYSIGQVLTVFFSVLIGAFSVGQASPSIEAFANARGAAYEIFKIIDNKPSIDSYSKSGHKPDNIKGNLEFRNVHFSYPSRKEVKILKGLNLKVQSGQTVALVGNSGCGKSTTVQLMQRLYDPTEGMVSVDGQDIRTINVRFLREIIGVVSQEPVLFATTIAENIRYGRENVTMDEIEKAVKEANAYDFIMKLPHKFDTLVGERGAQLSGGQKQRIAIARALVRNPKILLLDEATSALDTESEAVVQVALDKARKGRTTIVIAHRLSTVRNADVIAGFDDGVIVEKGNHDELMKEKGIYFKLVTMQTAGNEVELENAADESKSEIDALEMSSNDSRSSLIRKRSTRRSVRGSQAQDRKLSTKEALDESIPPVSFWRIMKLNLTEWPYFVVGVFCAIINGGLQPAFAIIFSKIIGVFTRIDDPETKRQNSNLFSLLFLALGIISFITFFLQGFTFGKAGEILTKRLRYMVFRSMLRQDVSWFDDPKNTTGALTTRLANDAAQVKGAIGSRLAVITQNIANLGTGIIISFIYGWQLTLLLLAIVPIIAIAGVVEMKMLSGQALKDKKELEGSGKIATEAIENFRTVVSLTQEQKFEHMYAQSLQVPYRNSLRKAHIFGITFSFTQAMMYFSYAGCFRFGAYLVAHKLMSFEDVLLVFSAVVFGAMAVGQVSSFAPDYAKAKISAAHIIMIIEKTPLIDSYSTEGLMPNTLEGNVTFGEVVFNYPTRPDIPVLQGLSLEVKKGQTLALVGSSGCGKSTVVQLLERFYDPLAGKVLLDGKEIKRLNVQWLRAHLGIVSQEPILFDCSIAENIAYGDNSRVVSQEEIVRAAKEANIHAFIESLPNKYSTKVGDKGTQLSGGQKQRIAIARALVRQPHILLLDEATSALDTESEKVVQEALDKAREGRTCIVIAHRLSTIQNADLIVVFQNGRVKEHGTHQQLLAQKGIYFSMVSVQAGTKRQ

Tests used:
Pgp [1] = molecular target: T1, Pgp (Homo sapiens, UniProt P08183); conditions: clinically relevant doses; cut-off for systemic Pgp inhibition
[2] = geometric mean, cited from earlier work; for AUC ratio: AUCinf; for AUC ratio / Cmax ratio: observed, CYP2C9 *1/*1 + *1/*2; for AUCinf ratio: *1*1 subgroup
Pgp [3] = molecular target: T1, Pgp; experiment: cell-based

- R (50*[Cmax]free) (Pgp [1]): 570 nM
- IC50 (Pgp [3]): 0.67 µM
Structure (SMILES): COc1cc(OC)cc(N(CCNC(C)C)c2ccc3ncc(-c4cnn(C)c4)nc3c2)c1 [erdafitinib]
- Cmax ([2]; 4-mg single dose, no inhibitor, Cohort A n=17): 134 ng/mL
- AUC ratio ([2]; with 200-mg q.d. itraconazole): 1.34
- AUC ratio ([2]; with 400-mg q.d. fluconazole): 1.49
- Cmax ratio ([2]; with 200-mg q.d. itraconazole): 1.04
- Cmax ratio ([2]; with 400-mg q.d. fluconazole): 1.21
- AUCinf ratio ([2]; with fluconazole): 1.52
- AUCinf ratio ([2]; with itraconazole): 1.23
